Substitutions are numbered along the chain they refer to. Results are given in words; binding and its absence hold for the method and conditions named. For some of these results: In cells and extracts the contact can be indirect. Some entries that bind do so weakly or less than the wild type. For some of these results: Where a sequence is shown, tags or fusion partners need not be part of it.
T1: V5-FBP1^E98A (human) (UniProt P09467)
T1 sequence: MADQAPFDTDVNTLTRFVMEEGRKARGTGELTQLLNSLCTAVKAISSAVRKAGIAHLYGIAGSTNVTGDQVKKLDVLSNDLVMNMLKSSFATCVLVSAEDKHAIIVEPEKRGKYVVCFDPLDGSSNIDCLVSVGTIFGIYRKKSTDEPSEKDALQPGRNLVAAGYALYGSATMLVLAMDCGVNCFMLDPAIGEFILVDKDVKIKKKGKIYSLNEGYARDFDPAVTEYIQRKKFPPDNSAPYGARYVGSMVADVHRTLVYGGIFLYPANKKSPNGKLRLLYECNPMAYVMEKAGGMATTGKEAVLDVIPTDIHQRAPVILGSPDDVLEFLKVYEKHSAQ

By UniProt entry, the sequences of proteins in these tests, tags left out. Where a name states a change or a piece, a line headed by the entry shows the natural chain unless it says otherwise.
UniProt P31749, whole entry: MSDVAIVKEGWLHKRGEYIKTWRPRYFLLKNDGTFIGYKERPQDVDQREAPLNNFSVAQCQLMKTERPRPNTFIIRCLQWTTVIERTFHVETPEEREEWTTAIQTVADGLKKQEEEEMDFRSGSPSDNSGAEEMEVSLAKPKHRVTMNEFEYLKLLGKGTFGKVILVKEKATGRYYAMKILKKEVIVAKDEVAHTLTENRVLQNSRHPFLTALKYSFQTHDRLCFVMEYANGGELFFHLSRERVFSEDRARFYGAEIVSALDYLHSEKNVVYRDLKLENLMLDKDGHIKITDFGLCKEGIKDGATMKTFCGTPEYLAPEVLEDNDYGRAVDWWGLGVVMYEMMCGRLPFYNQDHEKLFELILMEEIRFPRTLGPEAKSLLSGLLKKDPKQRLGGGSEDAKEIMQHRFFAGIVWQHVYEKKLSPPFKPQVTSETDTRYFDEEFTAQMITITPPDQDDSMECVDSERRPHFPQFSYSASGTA
UniProt P31751, whole entry: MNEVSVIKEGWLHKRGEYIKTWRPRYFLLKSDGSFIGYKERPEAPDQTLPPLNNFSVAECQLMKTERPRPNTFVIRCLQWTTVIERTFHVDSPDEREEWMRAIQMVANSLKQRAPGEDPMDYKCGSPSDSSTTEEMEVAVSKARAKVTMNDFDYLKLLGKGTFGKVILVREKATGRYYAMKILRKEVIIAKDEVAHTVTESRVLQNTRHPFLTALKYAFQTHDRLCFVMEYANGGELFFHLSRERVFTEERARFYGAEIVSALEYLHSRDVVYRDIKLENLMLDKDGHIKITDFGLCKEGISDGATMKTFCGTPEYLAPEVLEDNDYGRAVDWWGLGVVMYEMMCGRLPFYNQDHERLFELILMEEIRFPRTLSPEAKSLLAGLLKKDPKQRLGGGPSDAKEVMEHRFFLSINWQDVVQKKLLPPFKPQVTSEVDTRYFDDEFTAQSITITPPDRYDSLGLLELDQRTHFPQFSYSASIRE

T2: V5-FBP1 (human) (UniProt P09467)
T2 sequence: T1 sequence with A98E

T3: Flag-ALDOB (UniProt P05062)
T3 sequence: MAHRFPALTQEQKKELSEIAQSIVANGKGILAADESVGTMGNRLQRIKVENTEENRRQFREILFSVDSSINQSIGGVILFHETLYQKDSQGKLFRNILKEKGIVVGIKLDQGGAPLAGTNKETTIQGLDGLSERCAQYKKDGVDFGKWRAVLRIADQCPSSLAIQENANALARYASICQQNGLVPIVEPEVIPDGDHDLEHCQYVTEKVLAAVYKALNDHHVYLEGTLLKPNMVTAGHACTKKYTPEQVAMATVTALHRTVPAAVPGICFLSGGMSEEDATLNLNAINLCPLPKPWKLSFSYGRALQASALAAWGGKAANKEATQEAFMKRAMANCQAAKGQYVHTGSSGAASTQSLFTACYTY

T4: His-FBP1 (UniProt P09467)
T4 sequence: T1 sequence with A98E

T5: FBP1 (mouse liver) (mouse (endogenous in liver)) (UniProt Q9QXD6)
T5 sequence: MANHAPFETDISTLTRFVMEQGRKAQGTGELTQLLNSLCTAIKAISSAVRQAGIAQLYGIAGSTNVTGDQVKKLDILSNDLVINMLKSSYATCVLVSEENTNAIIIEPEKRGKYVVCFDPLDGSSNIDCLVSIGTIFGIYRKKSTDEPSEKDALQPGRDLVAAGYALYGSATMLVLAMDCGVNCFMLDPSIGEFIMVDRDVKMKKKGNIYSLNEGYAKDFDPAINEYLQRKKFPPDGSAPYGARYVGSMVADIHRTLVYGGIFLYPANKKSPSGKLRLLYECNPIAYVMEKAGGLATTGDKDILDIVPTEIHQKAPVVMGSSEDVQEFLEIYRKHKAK

T6: V5-FBP1^L329P (human) (UniProt P09467)
T6 sequence: T1 sequence with A98E, L329P

B1: ALDOB (enzyme, UniProt P05062 1-364)
chain: T3 sequence
B2: His-ALDOB (enzyme, UniProt P05062 1-364)
chain: T3 sequence
B3: ALDOB (mouse liver) (enzyme, UniProt Q91Y97 1-364)
chain: MAHRFPALTPEQKKELSEIAQRIVANGKGILAADESVGTMGNRLQRIKVENTEENRRQFRELLFSVDNSISQSIGGVILFHETLYQKDSQGNLFRNVLKEKGIVVGIKLDQGGAPLAGTNKETTIQGLDGLSERCAQYKKDGVDFGKWRAVLRIADQCPSSLAIQENANALARYASICQQNGLVPIVEPEVLPDGDHDLEHCQYVSEKVLAAVYKALNDHHVYLEGTLLKPNMVTAGHACTKKYTPEQVAMATVTALHRTVPAAVPGICFLSGGMSEEDATLNLNAINRCPLPRPWKLSFSYGRALQASALAAWGGKAANKKATQEAFMKRAMANCQAAQGQYVHTGSSGAAATQSLFTASYTY
B4: ALDOB (Huh7 cells) (enzyme, UniProt P05062 1-364)
chain: T3 sequence

Key:
[1] = target: T1, V5-FBP1^E98A (human); assay: co-IP
[2] = target: T2, V5-FBP1 (human); assay: co-IP
[3] = target: T3, Flag-ALDOB; assay: co-IP
[4] = target: T4, His-FBP1; assay: pull-down
[5] = target: T5, FBP1 (mouse liver) (mouse (endogenous in liver)); assay: SEC
[6] = target: T5, FBP1 (mouse liver) (mouse (endogenous in liver)); assay: proximity ligation
[7] = target: T6, V5-FBP1^L329P (human); assay: co-IP

| Molecule | binding [1] | binding [2] | also measured |
| --- | --- | --- | --- |
| AKT1 (from UniProt P31749 1-480) (enzyme) | binds | binds |  |
| endogenous AKT1 (from UniProt P31749 1-480) (enzyme) |  |  | binding [3]: binds |
| AKT2 (from UniProt P31751 1-481) (enzyme) | binds | binds |  |
| B1 | binds | binds |  |
| B2 |  |  | binding [4]: binds |
| B3 |  |  | binding [5]: binds; binding [6]: binds |
| B4 | binds | binds | binding [7]: no binding |
